In US20050142582:
Construct, isoform or probe ends are uncertain for at least one entry. For part of these data: Negatives hold for the conditions tested.

Assays:
[1] = test system: PBX (pre-B-cell leukemia transcription factor-1) (Ciona intestinalis); test: SPR; settings: high, no fit, multimer, purified recombinant protein, protein details: His6, E. coli, label: biotin, single-stranded DNA
[2] = test system: HOX4 homeodomain fragment; test: ELONA; settings: PBS-T, 4 C overnight; very little binding also on protein blot (FIG. 7C); purified recombinant protein; label: biotin; single-stranded DNA

“GGTATTGAGGGTCGCATCGCTATGGGTGGTCTGGTTGGGATTGGCCCCGGGAGCTGGCGATGGCTCTAACTCTCCTCT [6H7]”: binds ([1]; unusual response).
“GGTATTGAGGGTCGCATCGGCTTCAGGTTGGTCTGGTTGGGTTTGGCTCCTGTGTACGGATGGCTCTAACTCTCCTCT [6H5]”: binds ([1]; unusual response 3-4 times expected, also affinity purified from lysate).
“GGTATTGAGGGTCGCATCTCAAAAGGGGTGATTGCTTGCACAATGACAGGGTAGGACAGATGGCTCTAACTCTCCTCT [TTF1 Aptamer A]”: no binding [2].
